Assay results published in article PMC9626947.
These are yes or no findings as the source states them, for the method shown. Binding seen in cells or lysates may run through a third protein. Some entries that bind do so weakly or less than the wild type. Sequences can lack the tags named with a protein.

Sequences of proteins named here, by UniProt entry; tags and fusion partners are left off. A change or cut given only in a name is not applied to a line headed by its entry.
UniProt P21279: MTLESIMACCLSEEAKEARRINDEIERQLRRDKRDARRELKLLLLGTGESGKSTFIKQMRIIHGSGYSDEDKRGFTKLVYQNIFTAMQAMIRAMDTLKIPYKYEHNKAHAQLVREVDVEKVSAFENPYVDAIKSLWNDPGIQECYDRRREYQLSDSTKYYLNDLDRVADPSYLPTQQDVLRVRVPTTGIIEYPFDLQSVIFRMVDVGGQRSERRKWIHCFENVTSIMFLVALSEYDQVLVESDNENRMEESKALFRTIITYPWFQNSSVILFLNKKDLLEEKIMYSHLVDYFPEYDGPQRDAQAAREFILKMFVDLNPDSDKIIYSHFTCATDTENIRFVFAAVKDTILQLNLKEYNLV

Experiments:
GST-RGS2 = biological target: T1, GST-RGS2 (UniProt P41220); assay: pull-down; 8 μg of purified GST fusion protein prebound to GSH Sepharose beads, incubated 1 h at 4 °C with lysates of HEK 293 q/11 K/O cells transfected with αq constructs; cells treated with DMSO or 1 μM YM-254890 overnight; 20 mM Tris-HCl pH 7.4, 1 mM EDTA, 1 mM DTT, 5 mM MgCl2, 0.7% Triton X-100; immunoblot for αq; only the target purified
T1 sequence: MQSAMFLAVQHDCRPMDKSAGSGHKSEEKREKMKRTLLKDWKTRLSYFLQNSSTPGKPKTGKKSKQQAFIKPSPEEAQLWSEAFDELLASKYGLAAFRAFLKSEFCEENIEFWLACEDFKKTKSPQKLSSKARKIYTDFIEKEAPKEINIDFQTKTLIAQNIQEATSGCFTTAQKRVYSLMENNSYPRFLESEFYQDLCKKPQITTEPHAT

FLAG-PLCβ-3 = biological target: T2, FLAG-PLCβ-3 (UniProt Q01970); assay: co-IP; FLAG-PLCβ-3 immunoprecipitated with anti-FLAG M2 affinity gel from lysates of co-transfected HEK 293 q/11 K/O cells; cells untreated or treated with 1 μM YM-254890 overnight; lysis buffer C with 1 mM DTT, 2 h at 4 °C; immunoblot for αq
T2 sequence: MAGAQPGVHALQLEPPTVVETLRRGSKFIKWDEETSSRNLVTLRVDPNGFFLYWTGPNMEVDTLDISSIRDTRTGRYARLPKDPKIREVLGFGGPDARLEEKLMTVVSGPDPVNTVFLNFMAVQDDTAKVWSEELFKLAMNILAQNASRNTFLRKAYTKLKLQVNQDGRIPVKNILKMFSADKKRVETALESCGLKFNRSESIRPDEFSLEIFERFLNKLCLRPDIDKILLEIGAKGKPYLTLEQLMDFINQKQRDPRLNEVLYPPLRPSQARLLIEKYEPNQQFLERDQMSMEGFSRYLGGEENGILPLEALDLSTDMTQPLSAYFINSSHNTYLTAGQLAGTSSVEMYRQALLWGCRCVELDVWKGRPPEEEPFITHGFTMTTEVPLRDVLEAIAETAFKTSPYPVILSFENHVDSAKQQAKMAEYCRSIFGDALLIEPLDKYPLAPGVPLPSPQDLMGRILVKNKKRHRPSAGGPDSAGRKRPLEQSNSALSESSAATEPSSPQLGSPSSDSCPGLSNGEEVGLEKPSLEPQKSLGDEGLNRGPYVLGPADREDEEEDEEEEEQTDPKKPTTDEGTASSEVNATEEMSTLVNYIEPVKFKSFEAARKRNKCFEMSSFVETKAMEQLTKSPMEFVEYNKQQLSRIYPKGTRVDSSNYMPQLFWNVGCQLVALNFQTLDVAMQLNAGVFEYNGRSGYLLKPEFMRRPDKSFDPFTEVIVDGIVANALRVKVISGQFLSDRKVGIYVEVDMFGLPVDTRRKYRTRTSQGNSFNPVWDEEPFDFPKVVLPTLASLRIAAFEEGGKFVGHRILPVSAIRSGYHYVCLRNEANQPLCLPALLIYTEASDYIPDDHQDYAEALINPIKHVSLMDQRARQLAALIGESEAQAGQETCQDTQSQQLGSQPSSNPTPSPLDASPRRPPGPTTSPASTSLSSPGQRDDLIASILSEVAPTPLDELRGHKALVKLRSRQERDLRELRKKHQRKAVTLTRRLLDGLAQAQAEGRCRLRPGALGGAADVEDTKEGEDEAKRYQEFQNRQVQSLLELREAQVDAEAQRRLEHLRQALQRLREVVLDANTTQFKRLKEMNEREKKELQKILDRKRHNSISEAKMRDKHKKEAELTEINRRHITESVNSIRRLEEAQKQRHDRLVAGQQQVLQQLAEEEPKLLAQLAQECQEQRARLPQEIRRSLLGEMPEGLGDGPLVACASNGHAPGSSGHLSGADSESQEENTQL

## HA-tagged αqQ209L (from UniProt P21279 1-359)
GST-RGS2
  binding: binds
FLAG-PLCβ-3
  binding: binds
